A short description of the series: Filter efficiency of small scale hemofiltration cartridge removing chemotherapeutic agents from circulating blood. Conditions: bovine blood 100 mL/min.
Where [1] appears, read: Average over time points, single drug.
[2] abbreviates: time 5 (samples every 5 minutes), single drug infused over 30 minutes.

Regarding `N.N.O=C([O-])C1(C(=O)[O-])CCC1.[Pt+2]` [Carboplatin], the Filter efficiency by setting is: under setting [1], 97.54; under setting [2], 98.96; (time 10, single drug) 97.81; (time 15, single drug) 97.54; (time 20, single drug) 97.55; (time 30, single drug) 95.95.

Compound `COc1cccc2c1C(=O)c1c(O)c3c(c(O)c1C2=O)C[C@@](O)(C(=O)CO)C[C@@H]3O[C@H]1C[C@H](N)[C@H](O)[C@H](C)O1` [Doxorubicin] showed a Filter efficiency under setting [1] of 97.33; a Filter efficiency under setting [2] of 98.52; a Filter efficiency (time 10, single drug) of 97.78; a Filter efficiency (time 20, single drug) of 97.19; a Filter efficiency (time 25, single drug) of 96.36; a Filter efficiency (time 30, single drug) of 96.47.

With `Nc1ccn([C@@H]2O[C@H](CO)[C@@H](O)C2(F)F)c(=O)n1` [Gemcitabine], the Filter efficiency reads like this: under setting [1], 99.25; under setting [2], 98.61; (time 15, single drug) 99.36; (time 20, single drug) 99.42; (time 25, single drug) 99.42; (time 30, single drug) 98.98.

As to `CC(=O)[C@]1(O)Cc2c(O)c3c(c(O)c2[C@@H](O[C@H]2C[C@H](N)[C@H](O)[C@H](C)O2)C1)C(=O)c1ccccc1C3=O` [Idarubicin], the Filter efficiency is reported as 58.80 under setting [1]; 75.43 under setting [2]; 67.00 (time 10, single drug); 58.59 (time 15, single drug); 52.69 (time 20, single drug); 48.06 (time 25, single drug). This compound also showed a Filter efficiency (time 30, single drug) of 51.02.

On to `N[C@@H](Cc1ccc(N(CCCl)CCCl)cc1)C(=O)O` [Melphalan], for which the Filter efficiency was determined as 98.03 under setting [1]; 98.59 (time 10, single drug); 97.86 (time 15, single drug); 97.63 (time 20, single drug); 97.04 (time 30, single drug).

The values are drawn from US11867686B2, “Method of selecting chemotherapeutic agents for an isolated organ or regional therapy” (Delcath Systems, Inc., priority 2012, dated 2024).
